According to article PMC9803678:
Changes are numbered by the printed parent chain. Names and notes keep the numbering of the source. No constants are given. Whether binding was seen depends on the method and setting. In cells and extracts the contact can be indirect. Some results given as binding are weak or reduced against the parent protein; the word gives no strength. For part of these data: Sequences can lack the tags named with a protein. Each block holds one binder with its values, some of them ahead of it.

Amino acid sequences for entries named in this document (tags omitted).
UniProt P21579: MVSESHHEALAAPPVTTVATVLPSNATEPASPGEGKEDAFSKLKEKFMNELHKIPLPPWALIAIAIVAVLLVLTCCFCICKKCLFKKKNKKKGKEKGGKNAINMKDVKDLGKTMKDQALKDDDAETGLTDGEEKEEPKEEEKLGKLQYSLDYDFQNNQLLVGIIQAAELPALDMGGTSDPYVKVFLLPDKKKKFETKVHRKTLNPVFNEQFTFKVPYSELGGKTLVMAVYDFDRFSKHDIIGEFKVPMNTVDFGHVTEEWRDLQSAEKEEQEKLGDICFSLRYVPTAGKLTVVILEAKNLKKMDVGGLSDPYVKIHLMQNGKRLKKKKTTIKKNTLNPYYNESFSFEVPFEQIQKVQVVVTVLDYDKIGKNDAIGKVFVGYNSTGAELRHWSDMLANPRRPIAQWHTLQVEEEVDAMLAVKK

Experiments:
synaptotagmin-1 = synaptotagmin-1 (UniProt P21579); test: pull-down; in vitro pull-down of SNAPIN-WT, T14A or T14E with synaptotagmin-1 (Supplementary Fig. S3G, H); legend and methods not shown
Flag-DYRK3 = target: T1, Flag-DYRK3 (UniProt O43781); test: co-IP; HEK293 cells transfected 24 h with Myc-SNAPIN and Flag-DYRK3; lysates immunoprecipitated with anti-Myc (Fig. 1B) or anti-Flag (Fig. 1C) antibody, immunoblot
T1 sequence: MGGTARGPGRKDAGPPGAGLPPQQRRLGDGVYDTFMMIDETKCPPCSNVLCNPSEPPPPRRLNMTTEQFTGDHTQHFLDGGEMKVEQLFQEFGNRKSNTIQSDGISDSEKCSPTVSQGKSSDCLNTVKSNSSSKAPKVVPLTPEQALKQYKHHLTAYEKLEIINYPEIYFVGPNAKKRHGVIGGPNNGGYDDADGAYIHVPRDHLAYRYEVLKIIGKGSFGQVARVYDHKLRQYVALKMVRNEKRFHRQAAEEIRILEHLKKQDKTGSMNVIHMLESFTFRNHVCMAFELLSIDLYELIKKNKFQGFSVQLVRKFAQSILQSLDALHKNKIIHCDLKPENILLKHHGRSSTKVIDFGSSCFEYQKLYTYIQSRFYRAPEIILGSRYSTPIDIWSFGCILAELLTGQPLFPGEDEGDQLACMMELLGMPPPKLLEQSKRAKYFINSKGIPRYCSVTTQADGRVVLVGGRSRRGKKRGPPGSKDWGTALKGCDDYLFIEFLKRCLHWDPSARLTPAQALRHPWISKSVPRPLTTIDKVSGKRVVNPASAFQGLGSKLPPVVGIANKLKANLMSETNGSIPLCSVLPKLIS

binding (synaptotagmin-1): binds
B1: SNAPIN-WT (in vitro pull-down) (protein, UniProt O95295 1-136)
chain: MAGAGSAAVSGAGTPVAGPTGRDLFAEGLLEFLRPAVQQLDSHVHAVRESQVELREQIDNLATELCRINEDQKVALDLDPYVKKLLNARRRVVLVNNILQNAQERLRRLNHSVAKETARRRAMLDSGIYPPGSPGK

binding (Flag-DYRK3): binds
B2: Myc-SNAPIN (protein, UniProt O95295 1-136)
chain: B1 chain

binding (synaptotagmin-1): binds
B3: SNAPIN-T14E (in vitro pull-down) (protein, UniProt O95295 1-136)
chain: B1 chain with T14E
